Literature values, collected in paper PMC9289666, “Highly Parallelized, Multicolor Optogenetic Recordings of Cellular Activity for Therapeutic Discovery Applications in Ion Channels and Disease-Associated Excitable Cells” (Frontiers in Molecular Neuroscience, 2022).

Test system: Nav1.5
Details: read-out: Nav1.5 Ionworks (IC50); automated patch clamp, literature reported; ref Harmer et al., 2011; cited from earlier work

Row | Compound | IC50 [µM]
1 | CCCNCC(O)COc1ccccc1C(=O)CCc1ccccc1 (centres unmarked) [Propafenone] | 1.2
2 | CN(C)CCOC(c1ccccc1)c1ccccc1 [Diphenhydramine] | 16.4
